Measured values as given in patent US20060030046A1 (TAKARA BIO, published 2006).

Amino acid sequences for entries named in this document (tags omitted). Residues count along the entry.
UniProt P02769, 25-607 limits assumed: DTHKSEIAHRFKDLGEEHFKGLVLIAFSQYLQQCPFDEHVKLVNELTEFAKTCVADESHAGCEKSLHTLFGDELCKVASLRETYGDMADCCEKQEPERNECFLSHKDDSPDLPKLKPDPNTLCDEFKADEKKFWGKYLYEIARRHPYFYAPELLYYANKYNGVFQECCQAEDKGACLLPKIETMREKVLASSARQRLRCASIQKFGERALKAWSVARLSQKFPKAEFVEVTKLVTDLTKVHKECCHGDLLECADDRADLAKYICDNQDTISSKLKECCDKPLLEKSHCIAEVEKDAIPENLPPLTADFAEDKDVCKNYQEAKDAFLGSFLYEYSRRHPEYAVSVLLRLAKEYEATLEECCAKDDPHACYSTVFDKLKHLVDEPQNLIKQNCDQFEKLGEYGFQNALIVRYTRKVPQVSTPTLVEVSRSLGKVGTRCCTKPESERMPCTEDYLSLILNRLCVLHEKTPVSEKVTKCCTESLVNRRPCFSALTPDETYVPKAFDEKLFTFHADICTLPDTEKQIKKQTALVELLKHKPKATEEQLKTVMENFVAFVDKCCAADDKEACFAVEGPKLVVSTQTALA

Biological target: T1, bovine serum albumin (bovine, UniProt P02769 25-607)
T1 construct: Commercial BSA used to coat control plates; also called BSA; BSA immobilized plate
Assay: CH-296 solution left on a BSA-coated plate, washed, then virus infection of NIH/3T3 cells; G418r colony number similar to that without CH-296 (indirect)

B1: CH-296 (other)
chain: PTDLRFTNIGPDTMRVTWAPPPSIDLTNFLVRYSPVKNEEDVAELSISPSDNAVVLTNLLPGTEYVVSVSSVYEQHESTPLRGRQKTGLDSPTGIDFSDITANSFTVHWIAPRATITGYRIRHHPEHFSGRPREDRVPHSRNSITLTNLTPGTEYVVSIVALNGREESPLLIGQQSTVSDVPRDLEVVAATPTSLLISWDAPAVTVRYYRITYGETGGNSPVQEFTVPGSKSTATISGLKPGVDYTITVYAVTGRGDSPASSKPISINYRTEIDKPSMAIPAPTDLKFTQVTPTSLSAQWTPPNVQLTGYRVRVTPKEKTGPMKEINLAPDSSSVVVSGLMVATKYEVSVYALKDTLTSRPAQGVVTTLENVSPPRRARVTDATETTITISWRTKTETITGFQVDAVPANGQTPIQRTIKPDVRSYTITGLQPGTDYKIYLYTLNDNARSSPVVIDASTAIDAPSNLRFLATTPNSLLVSWQPPRARITGYIIKYEKPGSPPREVVPRPRPGVTEATITGLEPGTEYTIYVIALKNNQKSEPLIGRKKTDELPQLVTLPHPNLHGPEILDVPST
notes: Added in solution at 10, 40 and 250 ug/ml to BSA-coated plates; also called polypeptide CH-296
  binding result: no binding (tested: 10, 40, 250 µg/ml)
